{"source": "patent US20200214998A1", "about": "“Method for Treating a Brain Cancer” (Allianz Pharmascience Ltd., priority 2019, published 2020)", "origin": "cited, not measured here", "system": "Glioblastoma multiforme (GBM)", "settings": "radiation and concomitant then adjuvant temozolomide; radiation alone 12.1 months; cited from earlier work", "note": "For at least one compound, name, drawing or mass did not settle the structure."}
{"smiles": "Cn1nnc2c(C(N)=O)ncn2c1=O", "note": "[TMZ, temozolomide]", "values": [{"measurement": "median overall survival (OS)", "value": 14.6, "unit": "months"}]}
